Results published in patent publication US20070004628A1 (SALK INSTITUTE FOR BIOLOGICAL STUDIES, published 2007).

Columns and labels:
[1] = target: Troy; test: immunoprecipitation
[2] = target: c-Myc-tagged, full-length p75 fusion protein; test: co-immunoprecipitation from co-transfected HEK293 lysates, Western blot
[3] = target: Flag-tagged, truncated p75 lacking the p75 ECD (Flag-p75-TM-ICD); test: co-immunoprecipitation with anti-Flag antibody from co-transfected HEK293 lysates, Western blot
[4] = target: c-Myc-tagged, full-length p75 fusion protein; test: co-immunoprecipitation with anti-c-myc antibodies from co-transfected HEK293 lysates, Western blot

B1: full-length p45 (p45-FL) (receptor)
chain: MLYNVSKGVVYSDTALQGQDGDREGMWVGAGGALAPNTSSLFPPEPPGASSNIIPVYCALLATVILGLLAYVAFKCWRSHKQRQQLAKARTVELGDPDRDQRRGDSNVFVDSPPSLEPCIPSQGPHPDLGCQLYLHIPQQQQEEVQRLLMMGEPAKGWQELAGHLGYQAEAVETMACDQMPAYTLLRNWAAQEGNRATLRVLEDALAAIGREDVVQVLSSPAESSSVV
notes: Untagged full-length p45 expressed in HEK293 cells or from transfected capped RNA in CGNs; Also used here for endogenous p45 of P7 mouse cerebellum; also called PLAIDD; NRADD
binding [1]: no binding
binding [2]: binds
binding [3]: binds
binding [4]: binds

Results are given in words; binding and its absence hold for the method and conditions named. For some of these results: In cells and extracts the contact can be indirect. For some of these results: Binding can be weak; no strength is given.
